Laboratory results from patent publication EP0120019B1, “PHARMACEUTICAL COMPOSITION HAVING A C[…]” (SCHERING AKTIENGESELLSCHAFT, priority 1982, dated 1983).

System: Menschliche Leukämiezellen und Lungenkarzinomzellen
Assay: Inhibition of proliferation (growth kinetics by cell count) of tumour cells in culture
Format: cell-based

## CCN(CC)C(=O)N[C@H]1C=C2c3cccc4[nH]cc(c34)C[C@H]2N(C)C1 [Lisurid, 1,1-Diethyl-3-(6-methyl-9.10-didelhydro-8a-ergolinyl)-harnstoff]
5 pg/ml, cell count after 48, 96 and 144 h, versus Lisurid-free medium, read-out: Hemmung der Zellvermehrung (Maximalwerte)
  inhibition at 5 µg/mL: ≤ 18%
20 µg/ml, cell count after 48, 96 and 144 h, versus Lisurid-free medium, read-out: Hemmung der Zellvermehrung (Maximalwerte)
  inhibition at 20 µg/mL: ≤ 53%
40 ug/ml, cell count after 48, 96 and 144 h, versus Lisurid-free medium, read-out: Hemmung der Zellvermehrung (Maximalwerte)
  inhibition at 40 µg/mL: ≤ 68%
100 µg/ml, cell count after 48, 96 and 144 h, versus Lisurid-free medium, read-out: Hemmung der Zellvermehrung (Maximalwerte)
  inhibition at 100 µg/mL: > 100%
General statement, in vitro
  zytostatische Wirkung (Hemmung der Proliferation in vitro): zytostatisch wirken
